Article PMC4550699
Results are given in words; binding and its absence hold for the method and conditions named. Binding seen in cells or lysates may run through a third protein. Sequences can lack the tags named with a protein.

Chains of the proteins cited; added tags and fusions are not shown.
UniProt Q9M7Q7: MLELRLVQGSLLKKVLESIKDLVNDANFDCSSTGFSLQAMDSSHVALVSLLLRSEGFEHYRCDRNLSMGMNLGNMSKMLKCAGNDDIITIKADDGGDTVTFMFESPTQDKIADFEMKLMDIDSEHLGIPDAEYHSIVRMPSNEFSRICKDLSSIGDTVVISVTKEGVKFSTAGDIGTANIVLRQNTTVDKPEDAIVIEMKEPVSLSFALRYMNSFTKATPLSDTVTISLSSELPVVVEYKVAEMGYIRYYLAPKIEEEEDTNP
UniProt Q9ZW35: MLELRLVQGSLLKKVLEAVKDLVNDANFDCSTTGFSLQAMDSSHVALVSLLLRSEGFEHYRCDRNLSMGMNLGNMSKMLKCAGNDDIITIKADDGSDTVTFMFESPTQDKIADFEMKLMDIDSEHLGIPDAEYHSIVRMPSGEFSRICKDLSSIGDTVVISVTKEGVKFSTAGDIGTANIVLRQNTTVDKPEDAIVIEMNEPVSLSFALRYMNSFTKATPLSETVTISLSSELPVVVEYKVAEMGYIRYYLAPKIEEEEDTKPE

Legend:
[1] = target: PCNA1_RFP (Arabidopsis thaliana) (UniProt Q9M7Q7); assay: condition: FRET efficiency 1.50%; threshold 1.19%; FRET or BRET; FLIM-FRET in nuclei of transiently transformed N. benthamiana leaf cells; donor GFP fusion, acceptor RFP fusion; E = (1 - tauDA/tauD) x 100%; FRET efficiency of free GFP/RFP (1.19%) used as threshold
[2] = target: PCNA2_RFP (Arabidopsis thaliana) (UniProt Q9ZW35); assay: condition: FRET efficiency 1.42%; threshold 1.19%; FRET or BRET; FLIM-FRET in nuclei of transiently transformed N. benthamiana leaf cells; donor GFP fusion, acceptor RFP fusion; E = (1 - tauDA/tauD) x 100%; FRET efficiency of free GFP/RFP (1.19%) used as threshold
[3] = target: RFP_PCNA2 (Arabidopsis thaliana) (UniProt Q9ZW35); assay: condition: FRET efficiency 1.23%; threshold 1.19%; FRET or BRET; FLIM-FRET in nuclei of transiently transformed N. benthamiana leaf cells; donor GFP fusion, acceptor RFP fusion; E = (1 - tauDA/tauD) x 100%; FRET efficiency of free GFP/RFP (1.19%) used as threshold
[4] = target: RFP_PCNA1 (Arabidopsis thaliana) (UniProt Q9M7Q7); assay: condition: FRET efficiency 0.41%; threshold 1.19%; FRET or BRET; FLIM-FRET in nuclei of transiently transformed N. benthamiana leaf cells; donor GFP fusion, acceptor RFP fusion; E = (1 - tauDA/tauD) x 100%; FRET efficiency of free GFP/RFP (1.19%) used as threshold

binding [1]: no binding
binding [2]: no binding
binding [3]: no binding
binding [4]: no binding
B1: CycD3;3_GFP (protein, UniProt Q9SN11 1-361)
chain: MALEEEEESQNAPFCVLDGLFCEEESEFHEQVDLCDESVEKFPFLNLGLSDHDMLWDDDELSTLISKQEPCLYDEILDDEFLVLCREKALDWIFKVKSHYGFNSLTALLAVNYFDRFITSRKFQTDKPWMSQLTALACLSLAAKVEEIRVPFLLDFQVEEARYVFEAKTIQRMELLVLSTLDWRMHPVTPISFFDHIIRRYSFKSHHQLEFLSRCESLLLSIIPDSRFLSFSPSVLATAIMVSVIRDLKMCDEAVYQSQLMTLLKVDSEKVNKCYELVLDHSPSKKRMMNWMQQPASPIGVFDASFSSDSSNESWVVSASASVSSSPSSEPLLKRRRVQEQQMRLSSINRMFFDVLSSSPR
